## Primary screen of a compound library

By UniProt entry, the sequences of proteins in these tests, tags left out.
UniProt E9BF75, entry or part of it: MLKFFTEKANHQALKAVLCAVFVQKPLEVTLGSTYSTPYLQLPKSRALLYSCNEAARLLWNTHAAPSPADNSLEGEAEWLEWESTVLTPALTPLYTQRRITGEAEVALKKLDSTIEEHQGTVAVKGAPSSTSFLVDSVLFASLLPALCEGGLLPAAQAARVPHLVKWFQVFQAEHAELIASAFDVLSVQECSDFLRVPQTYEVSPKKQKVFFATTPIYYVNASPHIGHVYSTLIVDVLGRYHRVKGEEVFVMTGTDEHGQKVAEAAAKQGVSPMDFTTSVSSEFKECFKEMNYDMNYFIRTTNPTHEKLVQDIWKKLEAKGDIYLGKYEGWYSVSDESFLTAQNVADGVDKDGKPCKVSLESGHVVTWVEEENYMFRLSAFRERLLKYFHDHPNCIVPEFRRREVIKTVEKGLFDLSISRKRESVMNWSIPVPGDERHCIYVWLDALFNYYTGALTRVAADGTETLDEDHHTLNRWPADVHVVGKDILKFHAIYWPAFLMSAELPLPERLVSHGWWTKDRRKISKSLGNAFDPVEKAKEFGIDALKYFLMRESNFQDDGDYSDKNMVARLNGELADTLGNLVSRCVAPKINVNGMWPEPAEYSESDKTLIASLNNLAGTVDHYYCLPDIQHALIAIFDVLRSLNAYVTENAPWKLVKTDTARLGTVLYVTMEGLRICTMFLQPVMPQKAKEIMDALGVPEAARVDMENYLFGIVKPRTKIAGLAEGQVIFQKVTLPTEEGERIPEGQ

From ChEMBL document CHEMBL3988442, “University of Dundee, Small-Polar-MMV Screening Library” (2021).

Mtb heat-shock: 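Assay on Mycobacterium tuberculosis, filed only as a heat shock assay from Cornell; the read-out is not stated. The concentration is filed as 10 mM, unlikely as a test dose, so the dose is not known. Higher reads as stronger inhibition (inferred: compounds with an IC50 in retests scored well above the rest). Of about 69,000 compounds tested this way, about 930 (1.4%) reached 50% or more in at least one test.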
LdMetRS: 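Methionyl-tRNA synthetase (putative), Leishmania donovani (UniProt E9BF75). Primary screen of methionyl-tRNA synthetase; the read-out is not stated. The test concentration is not given. Values are per cent inhibition. About 68,000 compounds were tested under these conditions; 0.035% (about 24) showed 50% or more at least once.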
Mtb growth Cornell: 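Whole-cell assay for inhibitors of Mycobacterium tuberculosis growth, labelled Cornell in the record; the read-out is not stated. The concentration is filed as 10 mM, unlikely as a test dose, so the dose is not known. Higher means stronger inhibition (inferred from two other growth screens of the library). Of about 53,000 compounds tested this way, about 900 (1.7%) reached 50% or more in at least one test.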

All values are in %. How 0% and 100% were set is not recorded. Most values in the screen are low, and negative values occur. Compounds were drawn at random from those tested, without regard to their results.

{"structure": "CNc1cc(N2CCCC2CNCc2csc(C(C)C)n2)ncn1", "stereo": "centres unmarked", "Mtb heat-shock": -15.06, "LdMetRS": 8.947}
{"structure": "CC(C)NC(=O)N1CCOC2(CCNCC2)C1", "Mtb heat-shock": -2.521, "LdMetRS": 5}
{"structure": "O=S(=O)(N1CCCCC1)N1CCCN(CC2CCCO2)CC1", "stereo": "centres unmarked", "Mtb heat-shock": 11.55, "LdMetRS": 14.87, "Mtb growth Cornell": 38.64}
{"structure": "Cn1cc(C2CCCN2C(=O)Cn2ccc3ccc(Cl)cc32)cn1", "stereo": "centres unmarked", "Mtb heat-shock": -8.896, "LdMetRS": 9.42, "Mtb growth Cornell": -32.91}
{"structure": "CC(=O)c1ccc(CNC(=O)c2cc(C#N)cn2C)nc1C", "Mtb heat-shock": -24.56, "LdMetRS": 9.946}
{"structure": "Cc1ccc2c(c1)C1(CCNCC1)CC2NCCO.Cl.Cl", "stereo": "centres unmarked", "Mtb heat-shock": 23.62, "Mtb growth Cornell": -1.317}
{"structure": "Cc1cc(C)n(C2CN(CC(O)COc3ccc(F)cc3)C2)n1", "stereo": "centres unmarked", "Mtb heat-shock": -9.183, "LdMetRS": 11.74, "Mtb growth Cornell": 25.45}
{"structure": "Cc1csc(C2(NCc3csc(C4CC4)n3)CCCC2)n1", "Mtb heat-shock": 41.22, "LdMetRS": 11.75, "Mtb growth Cornell": 19.76}
{"structure": "O=C(CN1CC(n2cccn2)C1)NCCc1c[nH]c2ccccc12", "Mtb heat-shock": 8.897, "LdMetRS": 7.302, "Mtb growth Cornell": 15.62}
{"structure": "NC(=O)C1CCN(C(=O)c2cccn2Cc2cccs2)C1", "stereo": "centres unmarked", "Mtb heat-shock": -12.47, "LdMetRS": 24.43}
{"structure": "CCN1CCN(C(=O)c2ccc3c(c2)NC(=O)CN3)[C@H]2CS(=O)(=O)C[C@H]21", "LdMetRS": 8.447}
{"structure": "c1ncn(CC2CCCN(Cc3csc(-c4ccsc4)n3)C2)n1", "stereo": "centres unmarked", "Mtb heat-shock": 0.03456, "LdMetRS": 18.71}
{"structure": "CCc1cc(N2CCC(N3CCSCC3)CC2)n2nccc2n1", "Mtb heat-shock": 14.87, "LdMetRS": 9.207, "Mtb growth Cornell": -50.06}
{"structure": "COCC1CN(C(=O)Nc2cc(Br)ccc2F)CCO1", "stereo": "centres unmarked", "Mtb heat-shock": -14.76, "LdMetRS": 14.25, "Mtb growth Cornell": -3.013}
{"structure": "O=C(O)c1cc(/C=C/c2cccc3ccccc23)ncn1", "Mtb heat-shock": -14.83, "LdMetRS": 15.38, "Mtb growth Cornell": 65.34}
{"structure": "CC(C)CCC(=O)N1CCC2(CC1)OCCO2", "Mtb heat-shock": 33.18, "LdMetRS": -3.133, "Mtb growth Cornell": -5.484}
{"structure": "COCCCN1CCC(C(=O)c2cc(F)ccc2F)CC1", "Mtb heat-shock": 11.08, "LdMetRS": 21.79}
{"structure": "Cc1ncnc2c1CCN(C(=O)CN(C)C)CC2", "LdMetRS": 0.346}
{"structure": "COc1ccc(CN2CC[C@H](c3nnc(-c4ccco4)o3)C2)cc1", "Mtb heat-shock": -0.2635, "LdMetRS": -6.441, "Mtb growth Cornell": -28.15}
{"structure": "Cc1noc(CCCC(=O)N2CCCC2c2ccsc2)n1", "stereo": "centres unmarked", "Mtb heat-shock": 5.477, "LdMetRS": 7.606}
{"structure": "O=C(O)C(F)(F)F.[H][C@@]12COC[C@]1(CNC(=O)c1ccco1)CN(C1CCOCC1)C2", "Mtb heat-shock": -7.738}
{"structure": "COc1ccnc(N2CCN(CC(=O)N3CCC(C)CC3)CC2)n1", "Mtb heat-shock": -16.02, "LdMetRS": 20.57, "Mtb growth Cornell": 6.062}
{"structure": "CCSc1nc(N)c(NC(=O)c2ccc(OC)c(OC)c2)c(=O)[nH]1", "Mtb heat-shock": 7.604, "LdMetRS": 5.036, "Mtb growth Cornell": -40.7}
{"structure": "CC(C)CS(=O)(=O)N1C[C@H]2C[C@H](C(=O)N3CCN(C)CC3)[C@@H](C1)O2", "LdMetRS": 13.66}

The first 2 entries again:

* CNc1cc(N2CCCC2CNCc2csc(C(C)C)n2)ncn1 (centres unmarked) | Mtb heat-shock: -15.06%; LdMetRS: 8.947%
* CC(C)NC(=O)N1CCOC2(CCNCC2)C1 | Mtb heat-shock: -2.521%; LdMetRS: 5%